Assay results from the supplement of paper PMC8104966.
Values joined by “and” are separate entries in the source; they are usually repeats but may differ in a detail not shown here. Equal values may be shown once. The list shows a part of the results. Repeats in this data set agree poorly, so a single value says little.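 U2OS cells expressing ACE2 were combined with U2OS cells expressing full-length spike, and imaging quantified fusion as the fraction of nuclei displaying both cell types' fluorescent markers. Non-toxic compounds with a fusion z-score under -3, i.e., over three standard deviations below the plate's DMSO wells, are called inhibitory hits.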

What follows are compounds tested on U2OS ACE2 x SARS-CoV-2 spike co-culture (assay: cell-cell fusion (fraction fused) z-score vs plate DMSO control; higher = more fusion). Details: 30 µM; 5 h; toxicity class: non-toxic, passed QC.
`OCCN1C[C@@H](O)[C@@H](O)C(O)C1CO` (some centres undefined) was tested, and the “cell-cell fusion (z-score)” value was inactive: 1.95. `O=C(O)CNC(=O)C(CS)Cc1ccccc1` (racemic) [DL-Thiorphan] was tested, and the “cell-cell fusion (z-score)” value was inactive: 0.519. `CNc1ccccc1C(=O)O` was tested, and the “cell-cell fusion (z-score)” value was inactive: 2.39. For `CC(C)c1cccc(C(C)C)c1O` [Propofol], the “cell-cell fusion (z-score)” value was inactive: 2.44. For `CC[C@H]1OC(=O)[C@H](C)C(O[C@H]2C[C@@](C)(OC)[C@@H](O)[C@H](C)O2)[C@H](C)[C@@H](OC2O[C@H](C)C[C@H](N(C)C)[C@H]2O)[C@](C)(O)C[C@@H](C)CN(C)[C@H](C)[C@@H](O)[C@]1(C)O.O.O` (some centres undefined) [Azithromycin dihydrate], the “cell-cell fusion (z-score)” value was inactive: 1.77. With `C=CC[C@H](N)C(=O)O` [L-allylglycine] the “cell-cell fusion (z-score)” value was inactive: 2.45. `Nc1ncn([C@@H]2O[C@H](CO)[C@@H](O)[C@@H]2O)c(=O)n1` [Azacitidine (Vidaza)] was tested, and the “cell-cell fusion (z-score)” value was inactive: 0.913. For `Cc1cn([C@H]2C=C[C@@H](CO)O2)c(=O)[nH]c1=O`, the “cell-cell fusion (z-score)” value was inactive: -1.37. With `Cc1cn([C@H]2C=C[C@@H](CO)O2)c(=O)[nH]c1=O` [2',3'-didehydro-3'-deoxythymidine] the “cell-cell fusion (z-score)” value was inactive: 3.36. `O=C(NCCO[N+](=O)[O-])c1cccnc1` was tested, and the “cell-cell fusion (z-score)” value was inactive: 1.05. In the case of `COc1ccccc1OCC(O)COC(N)=O` (centres undefined) [Methocarbamol], the “cell-cell fusion (z-score)” value is reported as inactive: 2.38. In the case of `COc1cccc(OC)c1-c1cc(C(=O)NC2(C(=O)O)C3CC4CC(C3)CC2C4)nn1-c1ccc(C(=O)N(C)CCCN(C)C)cc1C(C)C.Cl` (centres undefined), the “cell-cell fusion (z-score)” value is reported as inactive: 2.69. `CCN1CCCC1CNC(=O)c1cc(S(N)(=O)=O)ccc1OC` (racemic) [(±)-Sulpiride] was tested, and the “cell-cell fusion (z-score)” value was inactive: -0.478. For `CC(=O)OCC(=O)[C@@]1(O)[C@@H](C)CC2C3CCC4=CC(=O)C=C[C@]4(C)[C@@]3(F)[C@@H](O)C[C@@]21C` (some centres undefined), the “cell-cell fusion (z-score)” value was inactive: 0.312. `NC(N)=Nc1nc(CSCC/C(N)=N\S(N)(=O)=O)cs1` was tested, and the “cell-cell fusion (z-score)” value was inactive: 3.76. With `CN1CCC(=C2c3ccccc3CCc3cccnc32)CC1.O=C(O)/C=C\C(=O)O` the “cell-cell fusion (z-score)” value was inactive: 0.318. With `Cl.N=C(N)NC(=N)Nc1cccc(Cl)c1` [1-(m-Chlorophenyl)-biguanide hydrochloride] the “cell-cell fusion (z-score)” value was inactive: -0.801. In the case of `Cl.N#Cc1ccc2[nH]cc(CCCCN3CCN(c4ccc5oc(C(N)=O)cc5c4)CC3)c2c1`, the “cell-cell fusion (z-score)” value is reported as inactive: 1.64. With `CN1CCCCC1c1ccc(-c2cccnc2)nc1.Cl` (centres undefined) the “cell-cell fusion (z-score)” value was inactive: 0.885. `COc1ccccc1CN[C@@H]1CCCN[C@@H]1c1ccccc1.Cl.Cl.O` was tested, and the “cell-cell fusion (z-score)” value was inactive: 1.73 and inactive: 2.79. In the case of `C[C@H]1CN(C[C@H](Cc2ccccc2)C(=O)NCC(=O)O)CC[C@@]1(C)c1cccc(O)c1` [Alvimopan], the “cell-cell fusion (z-score)” value is reported as inactive: 1.78. In the case of `C=C1c2c(Cl)ccc(O)c2C(=O)C2=C(O)[C@]3(O)C(=O)C(C(N)=O)=C(O)[C@@H](N(C)C)[C@@H]3[C@@H](O)[C@H]12.O=C(O)c1cc(S(=O)(=O)O)ccc1O` [Meclocycline sulfosalicylate salt], the “cell-cell fusion (z-score)” value is reported as inactive: 0.0644. In the case of `COc1cc2occ(-c3ccc(OC)c(OC)c3OC)c(=O)c2cc1OC`, the “cell-cell fusion (z-score)” value is reported as inactive: 1.97. `CCN(CC)CCOC(=O)C(c1ccccc1)c1ccccc1.Cl` was tested, and the “cell-cell fusion (z-score)” value was inactive: 1.58. `C[C@@H]1C/C=C/C=C/C=C/C=C/[C@H](O[C@@H]2O[C@H](C)[C@@H](O)[C@H](N)[C@@H]2O)C[C@@H]2O[C@](O)(C[C@@H](O)C[C@H]3O[C@@H]3/C=C/C(=O)O1)C[C@H](O)[C@H]2C(=O)O` [Pimaricin] was tested, and the “cell-cell fusion (z-score)” value was inactive: 1.72. For `NC[C@H]1CC[C@H](C(=O)O)CC1` [Amstat], the “cell-cell fusion (z-score)” value was inactive: 1.9. For `CC(C)=CCc1c2c(c3occ(-c4ccc(O)c(O)c4)c(=O)c3c1O)C=CC(C)(C)O2`, the “cell-cell fusion (z-score)” value was inactive: 2.91. For `O=C(Nc1cc(C(F)(F)F)cc(C(F)(F)F)c1)c1cc(Cl)ccc1O`, the “cell-cell fusion (z-score)” value was inactive: 1.8. In the case of `CC(C)C[C@H]1C(=O)N2CCC[C@H]2[C@]2(O)O[C@](NC(=O)[C@@H]3C=C4c5cccc6[nH]c(Br)c(c56)C[C@H]4N(C)C3)(C(C)C)C(=O)N12.CS(=O)(=O)O` [Bromocriptine mesylate], the “cell-cell fusion (z-score)” value is reported as inactive: -2. `Br.NC(=O)C(c1ccccc1)(c1ccccc1)[C@@H]1CCN(CCc2ccc3c(c2)CCO3)C1` [Darifenacin HBr] was tested, and the “cell-cell fusion (z-score)” value was inactive: 1.92. With `C#C[C@]1(O)CCC2C3CCc4cc(OC5CCCC5)ccc4C3CC[C@@]21C` (some centres undefined) the “cell-cell fusion (z-score)” value was inactive: 1.7. With `CCCCCCCCCCCC1=C(O)C(=O)C=C(O)C1=O` [Embelin] the “cell-cell fusion (z-score)” value was inactive: 1.72. With `Cc1nc(-c2ccc(OCC(C)C)c(C#N)c2)sc1C(=O)O` [Febuxostat] the “cell-cell fusion (z-score)” value was inactive: 1.62. For `CN1CCC(=C2c3ccccc3CCc3cccnc32)CC1.O=C(O)/C=C\C(=O)O.O=C(O)/C=C\C(=O)O` [Azatadine Maleate], the “cell-cell fusion (z-score)” value was inactive: 2.12. For `COc1cc(C(=O)OCCC[NH+]2CCC[NH+](CCCOC(=O)c3cc(OC)c(OC)c(OC)c3)CC2)cc(OC)c1OC.[Cl-].[Cl-]` [Dilazep hydrochloride], the “cell-cell fusion (z-score)” value was inactive: 1.89. With `CN1CCc2cc3c(cc2C1O)OCO3.Cl` (centres undefined) the “cell-cell fusion (z-score)” value was inactive: 2.68. In the case of `Nc1nc2ccc(OC(F)(F)F)cc2s1` [Riluzole], the “cell-cell fusion (z-score)” value is reported as inactive: -0.245. `O=C1C2C=CC=CC2=NC(=S)N1CCN1CCC(=C(c2ccc(F)cc2)c2ccc(F)cc2)CC1` (centres undefined) [Diacylglycerol Kinase Inhibitor II] was tested, and the “cell-cell fusion (z-score)” value was inactive: 0.102. For `CC(=O)OCC(=O)[C@@]1(O)CCC2C3CCC4=CC(=O)CC[C@]4(C)C3[C@@H](O)C[C@@]21C` (some centres undefined), the “cell-cell fusion (z-score)” value was inactive: 0.567. With `Oc1c(I)cc(Cl)c2cccnc12` [Clioquinol] the “cell-cell fusion (z-score)” value was inactive: -0.331. In the case of `O=c1cc(-c2ccccc2)oc2cc(O)c(O)c(O)c12`, the “cell-cell fusion (z-score)” value is reported as inactive: 2.56. In the case of `CC[N+](CC)(CC)CC(=O)Nc1c(C)cccc1C.[Br-]` [Lidocaine N-ethyl bromide quaternary salt], the “cell-cell fusion (z-score)” value is reported as inactive: 1.98. For `C[C@@H]1CN(c2c(F)c(N)c3c(=O)c(C(=O)O)cn(C4CC4)c3c2F)C[C@H](C)N1` [Sparfloxacin], the “cell-cell fusion (z-score)” value was inactive: 3.89. `CC(C)(C)CC(C)(C)c1ccc(OCCOCC[N+](C)(C)Cc2ccccc2)cc1.[Cl-]` was tested, and the “cell-cell fusion (z-score)” value was active: -6.89. In the case of `CCCCCN(CCCCC)C(=O)C(CCC(=O)[O-])NC(=O)c1ccc(Cl)c(Cl)c1.[Na+]` (centres undefined) [Lorglumide sodium], the “cell-cell fusion (z-score)” value is reported as inactive: 3.08. For `Brc1c(NC2=NCCN2)ccc2nccnc12`, the “cell-cell fusion (z-score)” value was inactive: -0.293. `CNC[C@H](O)c1ccc(O)c(O)c1.O=C(O)C(O)C(O)C(=O)O` [(-)-Epinephrine bitartrate] was tested, and the “cell-cell fusion (z-score)” value was active: -3.65. `O=C(CCCN1CCC2(CC1)C(=O)NCN2c1ccccc1)c1ccc(F)cc1` was tested, and the “cell-cell fusion (z-score)” value was inactive: 2.93. For `COc1cc(C/C=C/c2ccccc2)c(OC)cc1O`, the “cell-cell fusion (z-score)” value was inactive: 2.6. `CCC(=O)Oc1ccc2c(c1)CC[C@@H]1[C@@H]2CC[C@]2(C)[C@@H](OC(=O)CC)CC[C@@H]12` [17-Beta-Estradiol-3,17-Dipropionate] was tested, and the “cell-cell fusion (z-score)” value was inactive: 1.99. With `CO/N=C(\C(=O)N[C@@H]1C(=O)N2C(C(=O)OCOC(=O)C(C)(C)C)=C(/C=C\c3scnc3C)CS[C@H]12)c1csc(N)n1` [Cefditoren pivoxil] the “cell-cell fusion (z-score)” value was inactive: 3.28. With `CCOc1nc2cccc(C(=O)OC(C)OC(=O)OC3CCCCC3)c2n1Cc1ccc(-c2ccccc2-c2nn[nH]n2)cc1` (centres undefined) [Candesartan Cilexetil] the “cell-cell fusion (z-score)” value was inactive: -2.14. In the case of `O=c1ccn([C@@H]2O[C@H](COP(=O)([O-])OP(=O)([O-])O)[C@@H](O)[C@H]2O)c(=O)[nH]1.[Na+].[Na+]` [Uridine 5'-diphosphate sodium], the “cell-cell fusion (z-score)” value is reported as inactive: 2.48. For `Nc1ncn([C@H]2C[C@H](O)[C@@H](CO)O2)c(=O)n1` [Decitabine], the “cell-cell fusion (z-score)” value was inactive: 1.58. In the case of `COC(=O)C1=C(C)NC(C)=C(C(=O)OCCN(C)Cc2ccccc2)C1c1cccc([N+](=O)[O-])c1.Cl` (centres undefined) [Nicardipine hydrochloride], the “cell-cell fusion (z-score)” value is reported as inactive: 1.78. In the case of `CC(CCc1ccc(O)cc1)NCCc1ccc(O)c(O)c1.Cl` (centres undefined) [Dobutamine hydrochloride], the “cell-cell fusion (z-score)” value is reported as inactive: -1.1. For `COc1nc(C)cnc1NS(=O)(=O)c1cccnc1-c1ccc(-c2nnco2)cc1` [Zibotentan (ZD4054)], the “cell-cell fusion (z-score)” value was inactive: 2.14. With `Cl.O[Si](CCCN1CCCCC1)(c1ccc(F)cc1)C1CCCCC1` (centres undefined) [Hexahydro-sila-difenidol hydrochloride, p-fluoro analog] the “cell-cell fusion (z-score)” value was inactive: -1.29. `NC(Cn1ccc(=O)c(O)c1)C(=O)O` (centres undefined) was tested, and the “cell-cell fusion (z-score)” value was inactive: 2.2. In the case of `CCN(CC)CCOCCOC(=O)C(CC)(CC)c1ccccc1.O=C(O)CC(O)(CC(=O)O)C(=O)O`, the “cell-cell fusion (z-score)” value is reported as inactive: 3.3. In the case of `NC(Cc1ccc(F)cc1)C(=O)O` (centres undefined), the “cell-cell fusion (z-score)” value is reported as inactive: 3.02. In the case of `C/C(=C\c1csc(C)n1)[C@@H]1C[C@@H]2O[C@]2(C)CCC[C@H](C)[C@H](O)[C@@H](C)C(=O)C(C)(C)[C@@H](O)CC(=O)N1` [Ixabepilone], the “cell-cell fusion (z-score)” value is reported as inactive: 0.538. In the case of `CCCCC(CC)COc1ccc(-c2nc(-c3ccc(OC)cc3)nc(-c3ccc(OCC(CC)CCCC)cc3O)n2)c(O)c1.NCCO.NCCO` (centres undefined), the “cell-cell fusion (z-score)” value is reported as inactive: 3.46. `CC1(C)C2CC(=O)[C@]3(C)C(CC[C@@]4(C)[C@H](c5ccoc5)OC(=O)[C@H]5O[C@]543)[C@@]2(C)C(=O)C[C@H]1O` (some centres undefined) was tested, and the “cell-cell fusion (z-score)” value was inactive: 2.55.
